Reference: patent publication US20180000725A1, “ORALLY-DISSOLVING FILMS FOR DRUG DELIVERY THROUGH THE ORAL CAVITY” (The Chinese University of Hong Kong, priority 2016, published 2018)

Columns and labels:
[1] = nifedipine, oral; cited from earlier work
[2] = In vivo pharmacokinetic study of nifedipine / NIF-ODF
[3] = New Zealand Albino, rabbit, in vivo, po, 1 mg/kg

In the case of `COC(=O)C1=C(C)NC(C)=C(C(=O)OC)C1c1ccccc1[N+](=O)[O-]` [nifedipine, Nifedipine], the “half-life time (t1/2)” value [1] is given as 2 to 5 h, the AUC(0-t) [2, 3] is given as 226 ng·h/mL and the half-life [2, 3] is given as 11.4 ± 1.68 h. For the same compound, the “λz” value ([2]; rabbits, nifedipine neat drug 1 mg/kg, oral gavage, n = 3) was 0.0011 ± 0.0002 min⁻¹.
